Assay results published in publication PMC11589570, “Critical assessment of LC3/GABARAP ligands used for degrader development and ligandability of LC3/GABARAP binding pockets” (Nature Communications, 2024).
“And” between values parts separate entries of the source, which are not always exact repeats. Equal entries are not always repeated. This continues a long series; more values of the same kind are listed elsewhere.

System: U2OS cells
Test: Cell growth assay (IncuCyte confluence over 72 h)
Assay type: cell-based
Parameters: key: % of well area covered by cells (confluence)
Conditions: listed as 10O5
Outline: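 U2OS cells were grown in DMEM with 10% FBS for 24 h before treatment. Confluence was then tracked by IncuCyte phase imaging over 72 h and expressed as % of well area covered by cells. Each point is the average of three wells.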

## O=C1Nc2ccc(I)cc2C1=Cc1cc(Br)c(O)c(Br)c1 [compound 4]
100 nM, time 12 h
  U2OS cell growth: 35.0644 and 31.1368 and 38.1423
100 nM, time 14 h
  U2OS cell growth: 39.6825 and 32.5147 and 41.0194
100 nM, time 16 h
  U2OS cell growth: 43.7196 and 34.5829 and 41.8557
100 nM, time 18 h
  U2OS cell growth: 44.6048 and 36.7887 and 45.0754
100 nM, time 20 h
  U2OS cell growth: 50.2219 and 32.9514 and 47.1764
100 nM, time 22 h
  U2OS cell growth: 46.2232 and 43.1632 and 48.735
100 nM, time 24 h
  U2OS cell growth: 47.4118 and 39.5106 and 54.7751
100 nM, time 26 h
  U2OS cell growth: 49.6815 and 42.9623 and 54.3754
100 nM, time 28 h
  U2OS cell growth: 62.1531 and 48.8537 and 57.2243
100 nM, time 30 h
  U2OS cell growth: 59.2394 and 47.8128 and 59.6333
100 nM, time 32 h
  U2OS cell growth: 61.7606 and 49.8461 and 58.8145
100 nM, time 34 h
  U2OS cell growth: 55.5071 and 50.9488 and 60.4858
100 nM, time 36 h
  U2OS cell growth: 60.4748 and 57.0533 and 63.2657
100 nM, time 38 h
  U2OS cell growth: 80.2582 and 68.7786 and 75.5151
100 nM, time 40 h
  U2OS cell growth: 74.3424 and 63.4087 and 71.4095
100 nM, time 42 h
  U2OS cell growth: 71.5765 and 63.2134 and 75.4086
100 nM, time 44 h
  U2OS cell growth: 82.0668 and 66.6662 and 76.8801
100 nM, time 46 h
  U2OS cell growth: 67.436 and 54.129 and 79.3314
100 nM, time 48 h
  U2OS cell growth: 81.0144 and 70.0285 and 75.752
100 nM, time 50 h
  U2OS cell growth: 78.848 and 69.4981 and 76.9393
100 nM, time 52 h
  U2OS cell growth: 82.3095 and 73.5248 and 81.7666
100 nM, time 54 h
  U2OS cell growth: 82.3358 and 67.0294 and 86.7412
100 nM, time 56 h
  U2OS cell growth: 88.3673 and 82.0399 and 84.9322
100 nM, time 58 h
  U2OS cell growth: 91.2498 and 85.7258 and 88.8638
100 nM, time 60 h
  U2OS cell growth: 98.2088 and 94.1479 and 95.1492
100 nM, time 62 h
  U2OS cell growth: 91.9817 and 87.5351 and 89.1541
100 nM, time 64 h
  U2OS cell growth: 92.0007 and 87.7247 and 88.321
100 nM, time 66 h
  U2OS cell growth: 90.2359 and 90.969 and 90.8012
100 nM, time 68 h
  U2OS cell growth: 95.5097 and 95.1042 and 93.296
100 nM, time 70 h
  U2OS cell growth: 97.3249 and 94.5386 and 92.5984
100 nM, time 72 h
  U2OS cell growth: 93.7424 and 93.1479 and 94.0851
500 nM, time 12 h
  U2OS cell growth: 36.7144 and 38.5756 and 38.73
500 nM, time 14 h
  U2OS cell growth: 41.1561 and 33.0836 and 38.4862
500 nM, time 16 h
  U2OS cell growth: 44.6966 and 38.2126 and 47.919
500 nM, time 18 h
  U2OS cell growth: 45.5344 and 38.5651 and 46.4003
500 nM, time 20 h
  U2OS cell growth: 47.189 and 36.9149 and 43.5315
500 nM, time 22 h
  U2OS cell growth: 54.9922 and 39.5228 and 47.7375
500 nM, time 24 h
  U2OS cell growth: 50.4803 and 42.6257 and 56.4379
500 nM, time 26 h
  U2OS cell growth: 54.3421 and 45.9175 and 53.1348
500 nM, time 28 h
  U2OS cell growth: 57.7272 and 50.7599 and 51.6698
500 nM, time 30 h
  U2OS cell growth: 57.5615 and 55.6625 and 53.968
500 nM, time 32 h
  U2OS cell growth: 62.0392 and 48.8539 and 57.6942
500 nM, time 34 h
  U2OS cell growth: 54.734 and 55.4305 and 59.287
500 nM, time 36 h
  U2OS cell growth: 66.4356 and 58.3506 and 63.4753
500 nM, time 38 h
  U2OS cell growth: 72.8568 and 61.8043 and 71.7026
500 nM, time 40 h
  U2OS cell growth: 73.4548 and 61.4476 and 68.7714
500 nM, time 42 h
  U2OS cell growth: 74.914 and 67.4603 and 74.9385
500 nM, time 44 h
  U2OS cell growth: 80.9607 and 67.5062 and 75.1918
500 nM, time 46 h
  U2OS cell growth: 76.6896 and 67.819 and 68.5995
500 nM, time 48 h
  U2OS cell growth: 85.4568 and 76.7529 and 77.7824
500 nM, time 50 h
  U2OS cell growth: 80.5839 and 72.0833 and 76.9956
500 nM, time 52 h
  U2OS cell growth: 83.8263 and 76.7093 and 82.3668
500 nM, time 54 h
  U2OS cell growth: 79.9481 and 72.7071 and 74.1223
500 nM, time 56 h
  U2OS cell growth: 87.162 and 80.7669 and 85.5542
500 nM, time 58 h
  U2OS cell growth: 90.4423 and 79.7888 and 88.2151
500 nM, time 60 h
  U2OS cell growth: 96.1652 and 88.6921 and 95.8515
500 nM, time 62 h
  U2OS cell growth: 94.001 and 86.5977 and 93.0844
500 nM, time 64 h
  U2OS cell growth: 96.4234 and 87.7997 and 90.4098
500 nM, time 66 h
  U2OS cell growth: 93.8474 and 88.5886 and 92.7486
500 nM, time 68 h
  U2OS cell growth: 97.3024 and 93.223 and 92.7077
500 nM, time 70 h
  U2OS cell growth: 92.1719 and 90.2272 and 97.1342
500 nM, time 72 h
  U2OS cell growth: 96.8429 and 92.5964 and 96.0803
1 uM, time 12 h
  U2OS cell growth: 23.4688 and 28.7975
1 uM, time 14 h
  U2OS cell growth: 43.1801 and 31.5471 and 34.3704
1 uM, time 16 h
  U2OS cell growth: 48.5114 and 40.5974 and 39.7626
1 uM, time 18 h
  U2OS cell growth: 49.1087 and 40.2889 and 36.2219
1 uM, time 20 h
  U2OS cell growth: 44.276 and 40.4638 and 40.4175
1 uM, time 22 h
  U2OS cell growth: 50.6338 and 35.4537 and 44.9267
1 uM, time 24 h
  U2OS cell growth: 50.7394 and 42.3213 and 43.1557
1 uM, time 26 h
  U2OS cell growth: 57.2306 and 39.6462 and 46.5806
1 uM, time 28 h
  U2OS cell growth: 56.0393 and 51.8942 and 43.3047
1 uM, time 30 h
  U2OS cell growth: 57.128 and 50.1384 and 48.8044
1 uM, time 32 h
  U2OS cell growth: 62.383 and 44.9795 and 51.7595
1 uM, time 34 h
  U2OS cell growth: 62.5996 and 44.0049 and 51.7696
1 uM, time 36 h
  U2OS cell growth: 63.4044 and 54.0518 and 58.8679
1 uM, time 38 h
  U2OS cell growth: 67.888 and 57.6638 and 55.5927
1 uM, time 40 h
  U2OS cell growth: 74.5097 and 64.1986 and 66.9349
1 uM, time 42 h
  U2OS cell growth: 75.7921 and 63.625 and 65.6012
1 uM, time 44 h
  U2OS cell growth: 76.6882 and 66.037 and 70.0103
1 uM, time 46 h
  U2OS cell growth: 80.5911 and 64.173 and 64.3277
1 uM, time 48 h
  U2OS cell growth: 82.8196 and 72.4697 and 70.6147
1 uM, time 50 h
  U2OS cell growth: 80.915 and 72.3635 and 70.6707
1 uM, time 52 h
  U2OS cell growth: 88.469 and 78.6078 and 78.2798
1 uM, time 54 h
  U2OS cell growth: 80.123 and 74.4528 and 70.0483
1 uM, time 56 h
  U2OS cell growth: 90.3104 and 83.4737 and 81.2576
1 uM, time 58 h
  U2OS cell growth: 92.1774 and 81.4101 and 79.8599
1 uM, time 60 h
  U2OS cell growth: 95.3333 and 89.0741 and 86.557
1 uM, time 62 h
  U2OS cell growth: 96.0195 and 87.0002 and 86.3753
1 uM, time 64 h
  U2OS cell growth: 95.9066 and 88.9368 and 89.6576
1 uM, time 66 h
  U2OS cell growth: 96.2061 and 94.0294 and 92.8016
1 uM, time 68 h
  U2OS cell growth: 97.3443 and 95.0497 and 91.8947
1 uM, time 70 h
  U2OS cell growth: 96.6759 and 92.6893 and 91.2966
1 uM, time 72 h
  U2OS cell growth: 97.1769 and 91.7585 and 92.6993
